Data published in PubChem BioAssay AID758 (NMMLSC, 2007).
Hit rate of the full screen: of about 190,000 compounds, about 110 (0.058%) were called active. Inconclusive results, whose numbers are uncertain, are shown with a selection of clear calls.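 The calls were made as follows: active = fluorescent GTP binding to Rab7 beads changed by at least 20 points from the 100% baseline, either direction, mostly lower; inconclusive = compound itself probably fluorescent, or too few beads counted; inactive = the rest.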

What follows are molecules tested on Rab7 GTPase wild type (dog), Bodipy-FL-GTP binding (assay: modulators of GTP binding to Rab7, primary screen, biochemical, wildtype, multiplex bead flow cytometry (AID 758;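 also: median green fluorescence of bound Bodipy-FL-GTP per Rab7 bead population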)). Conditions: GST-Rab7 beads, fluorescent GTP binding, at 10 µM, actives lie on both sides, untreated = 100%, excess cold GTP = 0%.

Row | SMILES | GTP binding activity (percent of control)
1 | COc1ccc(C2C(C(=O)Nc3ccc(OC)c(OC)c3)c3ccccc3C(=O)N2C)cc1 (configuration not stated) | inactive: 97%
2 | CCN(CC)S(=O)(=O)c1ccc(C(=O)NC(=S)N(CCC#N)Cc2cccnc2)cc1 | inconclusive: 96%
3 | O=Nc1c(O)n(Cc2ccc(Cl)cc2Cl)c2ccccc12 | inconclusive: 93%
4 | CCOC(=O)C1C(C(=O)NN)C1C(=O)Nc1ccccc1 (configuration not stated) | inactive: 98%
5 | COC(=O)c1nnn(CC(=O)Nc2ccc(C)c(F)c2)c1C(=O)OC | inconclusive: 92%
6 | CCCc1nc2sc3c(=O)n(N)cnc3c2c2c1CCCC2 | inconclusive: 100%
7 | CCS(=O)(=O)N1N=C(c2cccc(NS(C)(=O)=O)c2)CC1c1ccc(C)cc1 (configuration not stated) | inconclusive: 115%
8 | CCc1c(C)nc(Nc2nc(C)c3cc(OC)ccc3n2)[nH]c1=O | inconclusive: 94%
9 | Cc1ccccc1C(=O)O/N=C(\c1ccccc1)c1ccccn1 | inconclusive: 102%
10 | CN1CCN(CCCNC(=O)c2cn(C3CCCCC3)c(=O)c3c2c2ccccc2n3C)CC1 | inconclusive: 102%
11 | O=C(CCC1CCCN(C(=O)c2ccoc2)C1)NCc1ccccc1F (configuration not stated) | inactive: 95%
12 | N#C/C(=C\Nc1ccccc1O)c1nc2ccccc2o1 | inconclusive: 100%
13 | CCOc1ccc(-c2ccc(SCC(=O)NCC3CCCO3)nn2)cc1 (configuration not stated) | inconclusive: 98%
14 | COc1cccc(/C=N/Nc2nn3cnnc3c3ccccc23)c1 | inconclusive: 74%
15 | O=c1cnnc(Nc2cccc(F)c2)[nH]1 | inconclusive: 99%
16 | O=C(N/C(=C/c1ccco1)C(=O)N1CCOCC1)c1cccs1 | inconclusive: 96%
17 | CCCC(CCC)C(=O)Oc1cc(C)[nH]c(=O)c1[N+](=O)[O-] | inactive: 102%
18 | CN1C(=O)/C(=C\c2cc(Br)cs2)c2ccccc21 | inconclusive: 89%
19 | CC(OC(=O)CCc1nc(=O)c2ccccc2n1C)C(=O)NCc1ccc2c(c1)OCO2 (configuration not stated) | inactive: 97%
20 | O=C(NCc1ccccc1)C1=C[C@@H](c2ccc(C(F)(F)F)cc2)C[C@@H](OCc2ccc(CO)cc2)O1 | inconclusive: 95%
21 | COc1cccc(CN2CCN(Cc3cccc4nonc34)CC2CCO)c1 (configuration not stated) | inactive: 104%
22 | CCCC1CC(C)(C(=O)Cn2[nH]c(=O)ccc2=O)OC1=O (configuration not stated) | inconclusive: 102%
23 | CCC(CC)C(=O)c1c[nH]c(C(=O)NCc2ccccn2)c1 | inactive: 103%
24 | CCCCN(CCCC)S(=O)(=O)c1c(C)[nH]c(=O)[nH]c1=O | inactive: 98%

Row | SMILES | GTP binding activity (percent of control)
25 | Cc1cc(N=NC(=O)c2ccccc2O)c2ccccc2c1O | inactive: 91%
26 | COc1ccc(C(=O)Oc2coc(CSc3nnc(NC(=O)c4cccs4)s3)cc2=O)cc1 | inconclusive: 95%
27 | Cn1c(SCCOc2ccccc2F)nc2ccccc2c1=O | inconclusive: 86%
28 | COc1cccc(N2CCN(Cc3nc(N)nc(N4CCCc5ccccc54)n3)CC2)c1 | inconclusive: 89%
29 | CNC(=O)NC(=O)CSc1nc(-c2cccs2)c(C#N)c(=O)[nH]1 | inconclusive: 92%
30 | Cc1ccc2c(c1)N(CC(=O)NC1CCC(C)CC1)C(=O)CO2 (configuration not stated) | inconclusive: 105%
31 | O=C(c1cc(S(=O)(=O)N2CCCCC2)c(Cl)cc1N1CCOCC1)N1CCOCC1 | inconclusive: 107%
32 | O=C(NCCN1CCOCC1)c1ccc(=O)n(Cc2ccc(Cl)cc2)c1 | inactive: 97%
33 | Cc1nc(NC(=O)/C=C/c2ccc(Cl)cc2Cl)sc1C(=O)N(C)C | inconclusive: 85%
34 | Cc1ccnc(Nc2nc(-c3c(C)nc4sccn34)cs2)c1 | inconclusive: 84%
35 | CC(=O)NCCCNc1ccc([N+](=O)[O-])cc1 | inconclusive: 105%
36 | Cc1cc(NC(=O)c2ccccc2)ncc1NC(=O)c1ccco1 | inconclusive: 96%
37 | COc1ccc(S(=O)(=O)N2CCN(CC(=O)Nc3cc(C(F)(F)F)ccc3Cl)CC2)cc1 | inconclusive: 27%
38 | COc1ccccc1OCC(O)Cn1c(=N)n(CCN2CCCCC2)c2ccccc21 (configuration not stated) | inconclusive: 95%
39 | O=c1[nH]c(SCc2cccc(F)c2)nc2c1CCCC2 | inactive: 96%
40 | O=C(Nc1nnc(-c2cccs2)o1)c1ccc(S(=O)(=O)N2CCOCC2)cc1 | inconclusive: 89%
41 | C/C(=N\NC(=O)CC1N=C(Cc2ccccc2)NNC1=O)c1ccc(Cl)cc1Cl (configuration not stated) | inconclusive: 122%
42 | O=C(CN1C(=O)C2CC=CCC2C1=O)Nc1ccc(S(=O)(=O)N2CCOCC2)cc1 (configuration not stated) | inactive: 96%
43 | O=C(Cn1cnc([N+](=O)[O-])n1)N/N=C/c1cc(Cl)ccc1O | inconclusive: 91%
44 | Cc1cccc(Nc2nc3c(S(=O)(=O)c4ccccc4)nnn3c3ccccc23)c1 | inconclusive: 100%
45 | CCS(=O)(=O)N1N=C(c2cccc(NS(C)(=O)=O)c2)CC1c1ccccc1 (configuration not stated) | inconclusive: 105%
46 | O=C(O)c1cccc(Nc2ncnc3c2cnn3-c2ccccc2)c1 | inconclusive: 91%
47 | COc1ccc(S(=O)(=O)Nc2ccccc2C(=O)NCc2ccco2)cc1Br | inactive: 99%

2 entries picked at random from those above, as already listed:
Row | SMILES | GTP binding activity (percent of control)
38 | COc1ccccc1OCC(O)Cn1c(=N)n(CCN2CCCCC2)c2ccccc21 (configuration not stated) | inconclusive: 95%
11 | O=C(CCC1CCCN(C(=O)c2ccoc2)C1)NCc1ccccc1F (configuration not stated) | inactive: 95%
